Experimental data from article PMC12040169 (PLOS Biology, 2025).
Some of the results follow.

Test system: T1, CTL2-GFP (C. trachomatis L2/434/Bu, GFP-expressing)
T1 construct: L2/434/Bu, GFP-expressing
Set-up: species or system HeLa; Intracellular C. trachomatis growth in HeLa cells, bulk GFP fluorescence relative to DMSO
Conditions: bulk GFP, single well; 28.5 h, 10 µM; inhibitor

| Structure (SMILES) | % of control remaining |
| --- | --- |
| Cc1c(CC(=O)O)c(=O)oc2cc(OCc3ccc(F)cc3)ccc12 [CBK286674] | 124.246% |
| O=C1CN(C(=O)NCC2COc3ccccc3O2)CCN1 (stereo not shown) [CBK155847] | 110.261% |
| O=C(O)Cc1nc(-c2ccccc2)c(-c2ccccc2)s1 [CBK159470] | 109.768% |
| Cn1cc(CNCC2CCCN2c2cccnn2)c(-c2cccnc2)n1 (stereo not shown) [CBK305326] | 160.267% |
| COc1cc(C(=O)Nc2ccc3oc(-c4cccnc4)nc3c2)ccc1OCc1ccc(Cl)cc1 [CBK264037] | 130.479% |
| Cc1ccc(C(F)(F)F)cc1NCc1csc(C2CCCO2)n1 (stereo not shown) [CBK305424] | 103.328% |
| CCN(CC)C(=O)Cn1nc(C)n2c(cc3oc(C)cc32)c1=O [CBK283609] | 123.049% |
| CC(NCc1ccncc1)=C1C(=O)c2ccccc2C1=O [CBK262890] | 104.973% |
| Cc1cc(N2CCN(C(=O)c3ccsc3)CC2)nc(C(C)C)n1 [CBK304053] | 64.1612% |
| CC1(C)CC(CCNC(=O)CCC(=O)O)(c2ccccc2)CCO1 (stereo not shown) [CBK218198] | 138.024% |
| COCC1(O)CCN(Cc2sccc2Cl)CC1 [CBK304252] | 128.858% |
| c1ccc2oc(-c3cncc(NCCCN4CCOCC4)n3)cc2c1 [CBK066045] | 96.8405% |
| O=C(O)c1[nH]c2ccccc2c1C(c1cccs1)c1c(C(=O)O)[nH]c2ccccc12 [CBK267786] | 98.3906% |
| O=c1cnnc(Nc2ccc(Nc3ccccc3)cc2)[nH]1 [CBK287921] | 119.568% |
| CC1=CC(C)C(=S)NC(C)=C1 (stereo not shown) [CBK022735] | 120.043% |
| CCc1noc(CN2CCC(c3c[nH]c4ccc(OC)cc34)CC2)n1 [CBK305960] | 148.018% |
| Cc1nn(C)cc1CN1CCC(C(=O)NCCc2ccccc2)C1 (stereo not shown) [CBK281968] | 106.02% |
| CC(C)c1nc(C2CCCN(c3ncc(C#N)cc3Cl)C2)no1 (stereo not shown) [CBK304128] | 91.0249% |
| CC(NC(=O)CCc1cc2n(n1)CCNC2)c1cn2ccsc2n1 (stereo not shown) [CBK306551] | 103.94% |
| CCn1cc(C2CN(S(=O)(=O)Cc3ccccc3)CCO2)cn1 (stereo not shown) [CBK304129] | 77.1896% |
| O=C(Cn1c(-c2cccs2)cc2cccnc21)NCc1cccnc1 [CBK282457] | 119.988% |
| CCCNc1nccnc1-c1ccc(C(=O)N2CCN(C)CC2)cc1 [CBK036892] | 115.02% |
| Cc1ccc(OCC(=O)N2N=C(CC(C)C)CC2(O)C(F)(F)F)cc1C (stereo not shown) [CBK293935] | 124.916% |
| O=C(c1ncoc1-c1ccc(F)cc1)N1CCOCC1 [CBK282362] | 139.194% |
| CS(=O)(=O)N1CCC(Nc2nc(-c3cccs3)nc3ccccc23)CC1 [CBK305987] | 103.401% |
| CC1=CCCN(C(=O)C23CCOCC2CN(c2ncccn2)C3)C1 (stereo not shown) [CBK304743] | 102.181% |

Compounds listed so far with a furan ring, fused or not:

| Structure (SMILES) | % of control remaining |
| --- | --- |
| CCN(CC)C(=O)Cn1nc(C)n2c(cc3oc(C)cc32)c1=O [CBK283609] | 123.049% |
| c1ccc2oc(-c3cncc(NCCCN4CCOCC4)n3)cc2c1 [CBK066045] | 96.8405% |

(continued)

| Structure (SMILES) | % of control remaining |
| --- | --- |
| COc1ccc(CC(=O)N2CCCC2c2nnc3ccccn23)cc1 (stereo not shown) [CBK304719] | 122.44% |
| Cc1ccccc1C(=O)NC(=S)NCCN1CCOCC1 [CBK288475] | 98.9826% |
| CCCn1cc(CN2CC3C[C@@H](O)CN3C[C@@H]2C)c2ccccc21 (stereo partly shown) [CBK285466] | 109.884% |
| CC1=NN(c2ccc(S(N)(=O)=O)cc2)C(=O)/C1=C\c1ccc(-c2ccc(Cl)c([N+](=O)[O-])c2)o1 [CBK263612] | 111.712% |
| C[C@@H](Cn1nc2c(cc1=O)CCCC2)NC(=O)Cc1cccc(F)c1 [CBK284527] | 146.182% |
| CC(=O)c1[nH]c(C)c(C(=O)N(C)Cc2cc(-c3ccncc3)no2)c1C [CBK306681] | 112.359% |
| CC(=O)N1CCC(C(=O)Nc2cnc(-c3ccc(F)cc3)c(-c3ccco3)n2)CC1 [CBK037038] | 163.256% |
| CCOC(=O)c1csc(COc2ccccc2Cl)n1 [CBK057782] | 108.784% |
| COc1ccc(CCCC(=O)Nc2cc(N3CCNCC3)nc(SC)n2)cc1OC [CBK050261T] | 116.801% |
| O=C(O)CCSc1nccc(C(F)(F)F)n1 [CBK107864] | 116.797% |
| CCNc1nc(-c2cccc(/C=C/C(=O)O)c2)cn2ccnc12 [CBK066373] | 147.051% |
| CN1CCN(C(=O)c2nc(SCc3ccccc3)ncc2Cl)CC1 [CBK269003] | 109.616% |
| O=C(Nc1ccccc1-n1ccnc1)c1ncoc1-c1ccc(F)cc1 [CBK282417] | 122.895% |
| NC(=O)CN1CCCN(c2nccc(OCC3COc4ccccc4O3)n2)CC1 (stereo not shown) [CBK084041] | 148.294% |
| CCCn1nc(C)c(-c2cncn2CC(C)N2CCCCC2)c1C (stereo not shown) [CBK281802] | 126.464% |
| CCCCOc1ccccc1C1CC(=O)Nc2c(-c3ccccc3F)csc21 (stereo not shown) [CBK294439] | 78.863% |
| OCCN(CC#CCC(O)(c1ccccc1)c1ccccc1)CCO [CBK263623] | 132.23% |
| OCc1cccc(-c2nccnc2NCc2ccc(F)cc2)c1 [CBK037670] | 87.2844% |
| Cc1nc2cc(OCc3ccc(Cn4ccn(C(=O)CCC5CCCC5)c4=O)cc3)ccc2s1 [CBK106641] | 123.741% |
| Cc1cccc(C(=O)O)c1NC(=O)Cc1cccc2ccccc12 [CBK268361] | 85.5992% |
| Cc1nc(-c2ccc(S(=O)(=O)NCC3CC3)s2)cs1 [CBK085873] | 120.776% |
| O=c1c2cc(F)ccc2nc2n1CCN(Cc1ccccc1)CC2 [CBK285300] | 114.846% |
| Cc1ccc(Oc2cc(C)c([N+](=O)[O-])cn2)c(Br)c1 [CBK002823] | 112.187% |
| CCOC(=O)c1c(NS(=O)(=O)c2cc(Cl)sc2Cl)sc2c1CCCC2 [CBK050397] | 86.7522% |
| CSC1=Nc2cc(Cl)ccc2SCC1 [CBK019829] | 127.882% |
| O=C(O)c1ccc(COc2ccccc2/C=N/O)cc1 [CBK288481] | 112.512% |
